Our source for the step yield, crude mass and crude yield values is US10722599B2 (Yissum Research Development Company of the Hebrew …, priority 2015, dated 2020).

The nature of the series: general procedure: Fmoc solid-phase peptide synthesis; Rink Amide MBHA; HATU/HOBt.
The mark [1] stands for this setting: whole synthesis, scale 0.3 mmol.

In the case of DSG-Suc-Glu4, the step yield (purification step, on 246 mg crude portion) was 67%. For the same substance, under setting [1], the crude mass is recorded as 369 mg and the crude yield stood at 99%.
